Data taken from paper PMC7867191.

Assays:
Assay in all cases: two-hybrid; yeast strain Y2H Gold; pGBKT7 and pGADT7 fusions; growth on SD/-Trp-Leu-His and SD/-Trp-Leu-His-Ade dropout media
[1] = target: T1, MORF3, yeast two-hybrid fusion (Arabidopsis thaliana) (UniProt Q84JZ6)
T1 sequence: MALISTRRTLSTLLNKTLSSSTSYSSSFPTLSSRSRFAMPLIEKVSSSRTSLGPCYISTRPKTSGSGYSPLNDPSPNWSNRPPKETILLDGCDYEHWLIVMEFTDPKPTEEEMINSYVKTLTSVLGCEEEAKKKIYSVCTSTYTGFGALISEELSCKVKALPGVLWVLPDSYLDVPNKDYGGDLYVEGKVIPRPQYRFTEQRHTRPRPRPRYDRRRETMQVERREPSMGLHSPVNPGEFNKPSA

[2] = target: T2, MORF5, yeast two-hybrid fusion (Arabidopsis thaliana) (UniProt Q9C7Y2)
T2 sequence: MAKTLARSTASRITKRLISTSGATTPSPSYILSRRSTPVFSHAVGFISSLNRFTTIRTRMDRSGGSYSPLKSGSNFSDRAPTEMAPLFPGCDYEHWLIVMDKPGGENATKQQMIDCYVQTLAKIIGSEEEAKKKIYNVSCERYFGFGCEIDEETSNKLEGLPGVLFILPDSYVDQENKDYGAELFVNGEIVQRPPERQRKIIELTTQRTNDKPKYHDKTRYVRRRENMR

[3] = target: T3, MORF4, yeast two-hybrid fusion (Arabidopsis thaliana) (UniProt O48582)
T3 sequence: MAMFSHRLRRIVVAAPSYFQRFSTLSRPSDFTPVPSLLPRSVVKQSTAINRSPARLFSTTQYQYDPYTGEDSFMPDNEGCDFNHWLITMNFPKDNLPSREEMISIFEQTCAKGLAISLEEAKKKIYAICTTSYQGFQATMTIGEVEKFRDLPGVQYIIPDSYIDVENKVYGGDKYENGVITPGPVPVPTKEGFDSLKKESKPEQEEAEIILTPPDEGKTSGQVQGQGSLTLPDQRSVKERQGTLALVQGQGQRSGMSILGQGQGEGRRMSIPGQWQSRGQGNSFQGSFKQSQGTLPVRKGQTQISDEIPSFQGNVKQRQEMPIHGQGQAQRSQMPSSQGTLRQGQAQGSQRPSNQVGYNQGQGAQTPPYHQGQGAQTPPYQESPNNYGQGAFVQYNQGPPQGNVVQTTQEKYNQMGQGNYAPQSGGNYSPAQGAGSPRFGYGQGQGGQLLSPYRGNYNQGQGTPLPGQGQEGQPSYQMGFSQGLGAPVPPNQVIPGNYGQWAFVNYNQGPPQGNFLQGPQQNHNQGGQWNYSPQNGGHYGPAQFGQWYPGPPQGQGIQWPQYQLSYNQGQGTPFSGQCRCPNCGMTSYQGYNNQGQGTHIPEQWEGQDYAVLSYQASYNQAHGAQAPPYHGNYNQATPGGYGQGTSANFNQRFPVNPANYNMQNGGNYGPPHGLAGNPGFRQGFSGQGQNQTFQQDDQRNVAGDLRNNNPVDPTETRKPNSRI

[4] = target: T4, MORF7, yeast two-hybrid fusion (Arabidopsis thaliana) (UniProt Q9CAH0)
T4 sequence: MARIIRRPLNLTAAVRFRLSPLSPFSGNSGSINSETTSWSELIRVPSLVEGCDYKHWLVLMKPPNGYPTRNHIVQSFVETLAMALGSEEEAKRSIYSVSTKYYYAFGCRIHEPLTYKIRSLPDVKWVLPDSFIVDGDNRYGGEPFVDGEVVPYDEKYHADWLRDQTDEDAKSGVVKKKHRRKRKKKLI

[5] = target: T5, MORF1, yeast two-hybrid fusion (Arabidopsis thaliana) (UniProt O49429)
T5 sequence: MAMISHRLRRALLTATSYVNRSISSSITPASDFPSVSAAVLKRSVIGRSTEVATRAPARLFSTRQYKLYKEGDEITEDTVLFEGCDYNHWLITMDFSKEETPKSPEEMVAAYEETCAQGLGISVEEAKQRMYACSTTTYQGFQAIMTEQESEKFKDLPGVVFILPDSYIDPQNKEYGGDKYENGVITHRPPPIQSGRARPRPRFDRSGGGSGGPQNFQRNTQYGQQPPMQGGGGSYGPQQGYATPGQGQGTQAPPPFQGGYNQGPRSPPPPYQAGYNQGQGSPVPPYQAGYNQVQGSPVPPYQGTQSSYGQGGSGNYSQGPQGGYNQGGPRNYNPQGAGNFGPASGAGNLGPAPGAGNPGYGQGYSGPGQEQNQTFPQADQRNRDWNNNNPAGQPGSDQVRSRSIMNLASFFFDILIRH

[6] = target: T6, multiple organellar RNA editing factor 8 (MORF8), yeast two-hybrid fusion (Arabidopsis thaliana) (UniProt Q9LKA5)
T6 sequence: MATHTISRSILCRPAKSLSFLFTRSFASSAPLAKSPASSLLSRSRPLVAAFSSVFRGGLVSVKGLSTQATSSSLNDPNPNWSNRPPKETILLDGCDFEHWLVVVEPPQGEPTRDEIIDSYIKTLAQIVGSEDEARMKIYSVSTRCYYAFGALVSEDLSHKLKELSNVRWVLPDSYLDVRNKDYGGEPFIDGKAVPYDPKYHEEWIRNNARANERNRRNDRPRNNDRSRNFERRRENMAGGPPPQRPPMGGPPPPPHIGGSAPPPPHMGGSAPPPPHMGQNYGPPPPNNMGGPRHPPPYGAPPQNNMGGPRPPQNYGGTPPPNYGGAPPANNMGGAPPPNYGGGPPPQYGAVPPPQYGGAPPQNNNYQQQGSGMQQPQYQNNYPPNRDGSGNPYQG

[7] = target: T7, MORF6, yeast two-hybrid fusion (Arabidopsis thaliana) (UniProt O82169)
T7 sequence: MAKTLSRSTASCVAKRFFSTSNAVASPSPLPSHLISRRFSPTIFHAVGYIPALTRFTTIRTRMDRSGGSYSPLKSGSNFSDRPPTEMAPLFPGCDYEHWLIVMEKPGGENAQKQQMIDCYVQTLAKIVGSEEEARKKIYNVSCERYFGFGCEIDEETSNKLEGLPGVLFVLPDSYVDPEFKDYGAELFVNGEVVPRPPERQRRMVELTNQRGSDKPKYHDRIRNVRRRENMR

mitochondrial transcription termination factor 27 (mTERF27), yeast two-hybrid fusion (Arabidopsis thaliana)
binding [1]: no binding
binding [2]: no binding
binding [3]: no binding
binding [4]: no binding
binding [5]: no binding
binding [6]: binds
binding [7]: no binding

Results are given in words; binding and its absence hold for the method and conditions named. For some of these results: Binding can be weak; no strength is given. Where a sequence is shown, tags or fusion partners need not be part of it.
